No constants are given. Whether binding was seen depends on the method and setting. In cells and extracts the contact can be indirect. Some results given as binding are weak or reduced against the parent protein; the word gives no strength. Sequences can lack the tags named with a protein.
Biological target: T1, Mmr1-HA (S. cerevisiae) (UniProt Q06324)
T1 sequence: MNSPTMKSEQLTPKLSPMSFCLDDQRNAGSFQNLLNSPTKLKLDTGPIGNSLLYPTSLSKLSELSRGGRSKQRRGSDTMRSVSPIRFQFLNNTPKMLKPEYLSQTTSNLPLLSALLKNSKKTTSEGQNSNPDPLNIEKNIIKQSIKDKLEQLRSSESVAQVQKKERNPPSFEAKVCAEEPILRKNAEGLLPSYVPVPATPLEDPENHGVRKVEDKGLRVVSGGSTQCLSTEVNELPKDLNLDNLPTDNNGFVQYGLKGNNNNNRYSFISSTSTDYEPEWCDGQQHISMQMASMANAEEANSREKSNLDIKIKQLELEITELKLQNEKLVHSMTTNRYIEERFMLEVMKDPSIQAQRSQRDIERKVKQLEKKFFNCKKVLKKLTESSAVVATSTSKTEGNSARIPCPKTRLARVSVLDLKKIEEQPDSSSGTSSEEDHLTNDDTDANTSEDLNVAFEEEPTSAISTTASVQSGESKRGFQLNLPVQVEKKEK
Experiment: co-IP; anti-HA (12CA5) and Protein A Sepharose from lysate of cim3-1 DMA1-FLAG MMR1-HA cells shifted to 37 °C; TBS, solubilised with 1% Triton X-100, washed with TBS 0.1% Tween-20, 4 °C; immunoblot with anti-HA and anti-FLAG

binding: binds
B1: Dma1-FLAG (protein, UniProt P38823 1-416)
chain: MSTNTVPSSPPNQTPPAASGIATSHDHTKFNNPIRLPISISLTINDTPNNNSNNNSVSNGLGILPSRTATSLVVANNGSANGNVGATAAAAATVETNTAPAVNTTKSIRHFIYPPNQVNQTEFSLDIHLPPNTSLPERIDQSTLKRRMDKHGLFSIRLTPFIDTSSTSVANQGLFFDPIIRTAGAGSQIIIGRYTERVREAISKIPDQYHPVVFKSKVISRTHGCFKVDDQGNWFLKDVKSSSGTFLNHQRLSSASTTSKDYLLHDGDIIQLGMDFRGGTEEIYRCVKMKIELNKSWKLKANAFNKEALSRIKNLQKLTTGLEQEDCSICLNKIKPCQAIFISPCAHSWHFHCVRRLVIMNYPQFMCPNCRTNCDLETTLESESESEFENEDEDEPDIEMDIDMEINNNLGVRLVD

Source: PMC9010424
